Test results from patent US20040229274A1 (Johns Hopkins, published 2004).
Results are given in words; binding and its absence hold for the method and conditions named. For some of these results: In cells and extracts the contact can be indirect. Some binding calls cover weakened binding; strength is not graded here. For some of these results: Where a sequence is shown, tags or fusion partners need not be part of it.

Chains of the proteins cited; added tags and fusions are not shown. Lines headed by an entry give the natural chain unless they say otherwise; changes in a name come on top. A line that says so, or that is headed by a name, gives the form on record, which may keep a tag or linker. Residues count along the entry.
UniProt P23385, residues 19-1199: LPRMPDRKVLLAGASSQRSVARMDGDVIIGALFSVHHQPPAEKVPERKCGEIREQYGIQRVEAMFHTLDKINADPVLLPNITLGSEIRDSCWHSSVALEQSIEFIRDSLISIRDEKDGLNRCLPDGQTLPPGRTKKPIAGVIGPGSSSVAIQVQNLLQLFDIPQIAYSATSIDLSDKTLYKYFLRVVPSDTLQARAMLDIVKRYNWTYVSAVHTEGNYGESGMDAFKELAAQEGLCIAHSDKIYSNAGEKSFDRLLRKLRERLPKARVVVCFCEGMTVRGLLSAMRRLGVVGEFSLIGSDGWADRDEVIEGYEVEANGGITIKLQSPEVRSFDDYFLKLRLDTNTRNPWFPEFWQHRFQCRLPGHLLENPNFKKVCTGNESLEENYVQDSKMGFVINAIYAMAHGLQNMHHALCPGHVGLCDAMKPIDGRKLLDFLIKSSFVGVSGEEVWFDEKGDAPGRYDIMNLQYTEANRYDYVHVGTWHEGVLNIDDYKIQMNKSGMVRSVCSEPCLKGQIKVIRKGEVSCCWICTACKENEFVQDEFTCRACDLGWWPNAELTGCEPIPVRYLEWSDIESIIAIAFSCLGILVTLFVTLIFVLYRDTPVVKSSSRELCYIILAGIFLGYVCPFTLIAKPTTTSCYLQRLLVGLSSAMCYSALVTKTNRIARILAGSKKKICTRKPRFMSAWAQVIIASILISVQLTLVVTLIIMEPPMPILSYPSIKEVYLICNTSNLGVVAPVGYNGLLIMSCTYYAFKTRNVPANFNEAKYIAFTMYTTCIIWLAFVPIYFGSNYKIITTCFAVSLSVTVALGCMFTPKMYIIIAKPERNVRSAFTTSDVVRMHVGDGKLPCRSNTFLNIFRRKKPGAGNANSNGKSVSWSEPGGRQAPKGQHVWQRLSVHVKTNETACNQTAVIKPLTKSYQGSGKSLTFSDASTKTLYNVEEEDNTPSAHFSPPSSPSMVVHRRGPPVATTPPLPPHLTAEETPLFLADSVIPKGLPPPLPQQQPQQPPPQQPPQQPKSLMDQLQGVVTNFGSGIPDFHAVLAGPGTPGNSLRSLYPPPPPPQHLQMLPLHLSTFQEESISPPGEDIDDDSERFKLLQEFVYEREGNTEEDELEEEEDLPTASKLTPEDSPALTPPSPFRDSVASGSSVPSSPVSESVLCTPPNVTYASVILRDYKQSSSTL
UniProt P31424: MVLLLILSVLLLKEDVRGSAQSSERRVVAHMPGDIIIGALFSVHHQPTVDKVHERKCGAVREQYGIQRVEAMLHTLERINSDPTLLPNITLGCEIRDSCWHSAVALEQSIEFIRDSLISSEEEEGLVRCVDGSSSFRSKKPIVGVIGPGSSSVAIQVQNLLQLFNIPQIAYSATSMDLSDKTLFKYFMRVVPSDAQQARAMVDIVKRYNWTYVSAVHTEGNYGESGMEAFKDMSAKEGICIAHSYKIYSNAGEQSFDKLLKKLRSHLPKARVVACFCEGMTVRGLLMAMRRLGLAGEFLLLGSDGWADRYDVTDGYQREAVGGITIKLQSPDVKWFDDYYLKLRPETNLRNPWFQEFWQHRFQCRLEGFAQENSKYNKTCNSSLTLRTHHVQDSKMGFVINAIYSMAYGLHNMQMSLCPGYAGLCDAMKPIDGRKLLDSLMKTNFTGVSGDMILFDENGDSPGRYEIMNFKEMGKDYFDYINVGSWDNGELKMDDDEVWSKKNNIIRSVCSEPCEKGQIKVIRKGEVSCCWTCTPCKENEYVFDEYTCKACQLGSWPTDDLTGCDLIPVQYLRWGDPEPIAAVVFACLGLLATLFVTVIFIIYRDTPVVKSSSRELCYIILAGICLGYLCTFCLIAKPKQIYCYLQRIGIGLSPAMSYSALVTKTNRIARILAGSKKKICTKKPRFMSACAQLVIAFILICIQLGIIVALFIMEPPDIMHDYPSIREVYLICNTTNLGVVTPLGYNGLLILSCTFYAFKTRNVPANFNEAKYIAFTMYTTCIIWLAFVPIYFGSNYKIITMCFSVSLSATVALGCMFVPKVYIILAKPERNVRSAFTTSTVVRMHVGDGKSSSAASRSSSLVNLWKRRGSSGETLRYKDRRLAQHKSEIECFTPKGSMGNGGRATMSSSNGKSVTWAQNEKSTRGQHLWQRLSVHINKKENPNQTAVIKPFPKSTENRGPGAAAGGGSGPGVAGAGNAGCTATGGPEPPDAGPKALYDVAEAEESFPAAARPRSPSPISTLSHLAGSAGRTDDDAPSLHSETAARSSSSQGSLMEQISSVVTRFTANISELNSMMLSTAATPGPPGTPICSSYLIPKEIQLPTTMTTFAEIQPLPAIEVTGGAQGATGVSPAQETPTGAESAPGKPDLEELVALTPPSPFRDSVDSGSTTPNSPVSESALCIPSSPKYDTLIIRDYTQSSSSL
native mGluR5 in detergent extracts of rat hippocampus: residues 21-1203 of P31424
myc-tagged mGluR5 C-terminus (195 aa) expressed in HEK-293 cells: residues 1009-1203 of P31424

Columns and labels:
[1] = target: full length mGluR1a transiently expressed in HEK-293 cells (UniProt P23385); test: in vitro binding to GST-Homer, immunoblot
[2] = target: full length mGluR5 transiently expressed in HEK-293 cells (UniProt P31424); test: in vitro binding to GST-Homer, immunoblot
[3] = target: native mGluR5 in detergent extracts of rat hippocampus (rat) (UniProt P31424); test: GST-Homer Affigel column loaded with hippocampal extract, immunoblot
[4] = target: full length mGluR1a transiently expressed in HEK-293 cells (UniProt P23385); test: bead-linked GST-Homer pull-down from HEK-293 cell extracts, immunoblot
[5] = target: full length mGluR5 transiently expressed in HEK-293 cells (UniProt P31424); test: as above
[6] = target: native mGluR5 in detergent extracts of rat hippocampus (rat) (UniProt P31424); test: GST-Homer affinity column loaded with hippocampal extract, immunoblot for mGluR5
[7] = target: native mGluR5 in detergent extracts of rat hippocampus (rat) (UniProt P31424); test: GST-Homer affinity column loaded with detergent extract of hippocampus, immunoblot
[8] = target: myc-tagged mGluR5 C-terminus (195 aa) expressed in HEK-293 cells (UniProt P31424); test: GST-Homer constructs, pull-down of myc-tagged mGluR5 C-terminus from HEK-293 extracts, immunoblot for myc
[9] = target: native mGluR5 in detergent extracts of rat hippocampus (rat) (UniProt P31424); test: co-immunoprecipitation from hippocampal lysate with anti-Homer serum, immunoblot for mGluR5
[10] = target: native mGluR5 in detergent extracts of rat hippocampus (rat) (UniProt P31424); test: co-immunoprecipitation from hippocampal lysate with anti-Homer antiserum, immunoblot for mGluR5

Measured: binding

B1: GST-Homer fusion protein (full length rat Homer, 1-186, fused to glutathione-S-transferase) (other)
chain: MGEQPIFSTRAHVFQIDPNTKKNWVPTSKHAVTVSYFYDSTRNVYRIISLDGSKAIINSTITPNMTFTKTSQKFGQWADSRANTVYGLGFSSEHHLSKFAEKFQEFKEAARLAKEKSQEKMELTSTPSQESAGGDLQSPLTPESINGTDDERTPDVTQNSEPRAEPAQNALPFSHRYTFNSAIMIK
notes: Bacterially expressed from pGEX; GST is put first as usual for pGEX; also called Homer GST fusion protein; Homer-GST fusion protein; not shown: glutathione-S-transferase (GST) encoded by the bacterial vector pGEX (Pharmacia)
not listed: [9] | [10]
binds: all other assays above

B2: native Homer protein in rat hippocampus (protein)
chain: MGEQPIFSTRAHVFQIDPNTKKNWVPTSKHAVTVSYFYDSTRNVYRIISLDGSKAIINSTITPNMTFTKTSQKFGQWADSRANTVYGLGFSSEHHLSKFAEKFQEFKEAARLAKEKSQEKMELTSTPSQESAGGDLQSPLTPESINGTDDERTPDVTQNSEPRAEPAQNALPFSHRYTFNSAIMIK
binds: [9] | [10]
